At least one structure is not confirmed: it was looked up by name or label, or the drawing left a doubt.
Tested on: nuclear export of GFP-HDAC5 in NRVMs
Experiment: Quantitative HDAC5 nuclear export assay in NRVMs (Cellomics High Content Imaging System)
Assay type: cell-based, rat
Conditions: PE 20 μM, 2 hrs, inhibitor pre-treatment 30 min, KN93, wortmannin, staurosporine 1 mM, U1026, HA1077, Y-27632, DAG Kinase inhibitor II, SB216763, Bis I 10 mM, rapamycin 30 ng/ml, Gö6983 10 μM

SMILES	block of PE-induced nuclear export of HDAC5
CO[C@H]1C[C@@H]2CC[C@@H](C)[C@@](O)(O2)C(=O)C(=O)N2CCCC[C@H]2C(=O)O[C@H]([C@H](C)C[C@@H]2CC[C@@H](O)[C@H](OC)C2)CC(=O)[C@H](C)/C=C(\C)[C@@H](O)[C@@H](OC)C(=O)[C@H](C)C[C@H](C)/C=C/C=C/C=C/1C [rapamycin]	did not significantly affect PE-induced nuclear export of HDAC5
COC[C@H]1OC(=O)c2coc3c2[C@@]1(C)C1=C(C3=O)[C@@H]2CCC(=O)[C@@]2(C)C[C@H]1OC(C)=O [wortmannin]	did not significantly affect PE-induced nuclear export of HDAC5
